Test results as given in PMC10174503.
These are yes or no findings as the source states them, for the method shown. Binding seen in cells or lysates may run through a third protein. Some entries that bind do so weakly or less than the wild type.

Sequences of proteins named here, by UniProt entry; tags and fusion partners are left off.
UniProt Q9EPU0: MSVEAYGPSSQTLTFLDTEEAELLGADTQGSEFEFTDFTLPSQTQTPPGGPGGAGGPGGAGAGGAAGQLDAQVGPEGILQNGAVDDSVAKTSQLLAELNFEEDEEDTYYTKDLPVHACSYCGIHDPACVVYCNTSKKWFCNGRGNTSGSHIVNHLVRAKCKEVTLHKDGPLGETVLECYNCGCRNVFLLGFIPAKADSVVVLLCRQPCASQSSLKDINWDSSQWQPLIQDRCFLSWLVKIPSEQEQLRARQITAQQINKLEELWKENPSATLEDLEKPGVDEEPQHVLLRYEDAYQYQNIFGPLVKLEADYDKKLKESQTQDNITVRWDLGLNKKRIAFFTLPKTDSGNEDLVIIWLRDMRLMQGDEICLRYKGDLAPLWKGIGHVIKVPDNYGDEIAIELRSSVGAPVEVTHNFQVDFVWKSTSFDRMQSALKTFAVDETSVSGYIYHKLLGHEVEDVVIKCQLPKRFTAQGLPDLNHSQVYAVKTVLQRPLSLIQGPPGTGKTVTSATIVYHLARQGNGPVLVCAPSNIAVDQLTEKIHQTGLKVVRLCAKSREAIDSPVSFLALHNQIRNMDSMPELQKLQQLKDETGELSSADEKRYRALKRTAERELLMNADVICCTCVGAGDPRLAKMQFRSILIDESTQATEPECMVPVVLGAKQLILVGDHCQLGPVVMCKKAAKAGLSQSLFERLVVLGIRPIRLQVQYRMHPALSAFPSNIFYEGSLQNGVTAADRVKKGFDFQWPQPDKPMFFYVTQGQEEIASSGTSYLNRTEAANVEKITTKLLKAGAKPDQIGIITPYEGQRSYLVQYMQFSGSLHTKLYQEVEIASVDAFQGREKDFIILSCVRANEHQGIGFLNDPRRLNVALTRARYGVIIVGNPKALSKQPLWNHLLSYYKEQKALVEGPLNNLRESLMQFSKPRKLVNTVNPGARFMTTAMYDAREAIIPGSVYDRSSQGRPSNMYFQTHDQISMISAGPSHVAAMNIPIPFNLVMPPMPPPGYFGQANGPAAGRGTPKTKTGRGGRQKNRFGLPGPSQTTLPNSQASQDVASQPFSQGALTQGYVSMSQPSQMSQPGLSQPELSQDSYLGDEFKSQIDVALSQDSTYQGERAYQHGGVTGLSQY

Tests used:
[1] = target: T1, MOV10 (Moloney leukemia virus 10) RNA helicase (mouse (endogenous in testis)) (UniProt P23249); experiment: co-IP; IP of mouse testis lysate (RIPA buffer) with anti-MOV10 or anti-UPF1 antibody on protein G Dynabeads, washed three times with RIPA, Western blot; normal rabbit IgG and Mov10-/- testis as controls
T1 sequence: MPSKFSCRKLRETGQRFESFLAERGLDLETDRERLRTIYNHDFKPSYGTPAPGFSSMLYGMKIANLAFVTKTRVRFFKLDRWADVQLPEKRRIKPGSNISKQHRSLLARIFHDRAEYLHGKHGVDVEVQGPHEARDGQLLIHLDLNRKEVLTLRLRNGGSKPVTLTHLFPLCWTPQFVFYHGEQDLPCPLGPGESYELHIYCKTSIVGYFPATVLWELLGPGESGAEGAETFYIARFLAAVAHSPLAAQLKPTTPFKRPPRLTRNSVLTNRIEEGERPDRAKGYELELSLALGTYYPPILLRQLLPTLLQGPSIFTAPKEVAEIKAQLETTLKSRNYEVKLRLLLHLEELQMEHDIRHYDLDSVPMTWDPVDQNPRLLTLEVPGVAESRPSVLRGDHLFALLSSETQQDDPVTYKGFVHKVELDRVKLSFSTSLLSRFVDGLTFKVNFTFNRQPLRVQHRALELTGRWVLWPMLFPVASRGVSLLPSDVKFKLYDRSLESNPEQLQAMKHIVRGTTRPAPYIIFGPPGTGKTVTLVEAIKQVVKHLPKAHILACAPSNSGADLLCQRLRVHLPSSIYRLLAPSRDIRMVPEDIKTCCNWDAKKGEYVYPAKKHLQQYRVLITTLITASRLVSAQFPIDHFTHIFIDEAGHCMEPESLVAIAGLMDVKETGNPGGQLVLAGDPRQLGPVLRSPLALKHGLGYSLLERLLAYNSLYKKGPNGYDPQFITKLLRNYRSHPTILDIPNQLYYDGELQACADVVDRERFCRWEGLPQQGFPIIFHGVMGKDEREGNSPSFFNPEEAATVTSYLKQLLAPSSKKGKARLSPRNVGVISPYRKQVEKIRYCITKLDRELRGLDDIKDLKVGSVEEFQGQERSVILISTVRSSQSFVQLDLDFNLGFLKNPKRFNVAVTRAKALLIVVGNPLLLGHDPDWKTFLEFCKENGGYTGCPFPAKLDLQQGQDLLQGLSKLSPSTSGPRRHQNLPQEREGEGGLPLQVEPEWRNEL

[2] = target: UPF1 (mouse (endogenous in testis)) (UniProt Q9EPU0); experiment: as above

**Q.** How did the binding [1] turn out when UPF1 (from UniProt Q9EPU0 1-1124) was run?
**A.** The binding was “binds”.

B1: MOV10 (Moloney leukemia virus 10) RNA helicase (protein, UniProt P23249 1-1004)
chain: T1 sequence
**Q.** With B1 as the molecule, how does the binding [2] read?
**A.** The binding was “binds”.
